Results taken from PMC9981882.
Results are given in words; binding and its absence hold for the method and conditions named. In cells and extracts the contact can be indirect. Some results given as binding are weak or reduced against the parent protein; the word gives no strength.

The chains behind the UniProt entries cited, without tags or fusion partners. Residues count along the entry.
UniProt P23467, residues 23-1997: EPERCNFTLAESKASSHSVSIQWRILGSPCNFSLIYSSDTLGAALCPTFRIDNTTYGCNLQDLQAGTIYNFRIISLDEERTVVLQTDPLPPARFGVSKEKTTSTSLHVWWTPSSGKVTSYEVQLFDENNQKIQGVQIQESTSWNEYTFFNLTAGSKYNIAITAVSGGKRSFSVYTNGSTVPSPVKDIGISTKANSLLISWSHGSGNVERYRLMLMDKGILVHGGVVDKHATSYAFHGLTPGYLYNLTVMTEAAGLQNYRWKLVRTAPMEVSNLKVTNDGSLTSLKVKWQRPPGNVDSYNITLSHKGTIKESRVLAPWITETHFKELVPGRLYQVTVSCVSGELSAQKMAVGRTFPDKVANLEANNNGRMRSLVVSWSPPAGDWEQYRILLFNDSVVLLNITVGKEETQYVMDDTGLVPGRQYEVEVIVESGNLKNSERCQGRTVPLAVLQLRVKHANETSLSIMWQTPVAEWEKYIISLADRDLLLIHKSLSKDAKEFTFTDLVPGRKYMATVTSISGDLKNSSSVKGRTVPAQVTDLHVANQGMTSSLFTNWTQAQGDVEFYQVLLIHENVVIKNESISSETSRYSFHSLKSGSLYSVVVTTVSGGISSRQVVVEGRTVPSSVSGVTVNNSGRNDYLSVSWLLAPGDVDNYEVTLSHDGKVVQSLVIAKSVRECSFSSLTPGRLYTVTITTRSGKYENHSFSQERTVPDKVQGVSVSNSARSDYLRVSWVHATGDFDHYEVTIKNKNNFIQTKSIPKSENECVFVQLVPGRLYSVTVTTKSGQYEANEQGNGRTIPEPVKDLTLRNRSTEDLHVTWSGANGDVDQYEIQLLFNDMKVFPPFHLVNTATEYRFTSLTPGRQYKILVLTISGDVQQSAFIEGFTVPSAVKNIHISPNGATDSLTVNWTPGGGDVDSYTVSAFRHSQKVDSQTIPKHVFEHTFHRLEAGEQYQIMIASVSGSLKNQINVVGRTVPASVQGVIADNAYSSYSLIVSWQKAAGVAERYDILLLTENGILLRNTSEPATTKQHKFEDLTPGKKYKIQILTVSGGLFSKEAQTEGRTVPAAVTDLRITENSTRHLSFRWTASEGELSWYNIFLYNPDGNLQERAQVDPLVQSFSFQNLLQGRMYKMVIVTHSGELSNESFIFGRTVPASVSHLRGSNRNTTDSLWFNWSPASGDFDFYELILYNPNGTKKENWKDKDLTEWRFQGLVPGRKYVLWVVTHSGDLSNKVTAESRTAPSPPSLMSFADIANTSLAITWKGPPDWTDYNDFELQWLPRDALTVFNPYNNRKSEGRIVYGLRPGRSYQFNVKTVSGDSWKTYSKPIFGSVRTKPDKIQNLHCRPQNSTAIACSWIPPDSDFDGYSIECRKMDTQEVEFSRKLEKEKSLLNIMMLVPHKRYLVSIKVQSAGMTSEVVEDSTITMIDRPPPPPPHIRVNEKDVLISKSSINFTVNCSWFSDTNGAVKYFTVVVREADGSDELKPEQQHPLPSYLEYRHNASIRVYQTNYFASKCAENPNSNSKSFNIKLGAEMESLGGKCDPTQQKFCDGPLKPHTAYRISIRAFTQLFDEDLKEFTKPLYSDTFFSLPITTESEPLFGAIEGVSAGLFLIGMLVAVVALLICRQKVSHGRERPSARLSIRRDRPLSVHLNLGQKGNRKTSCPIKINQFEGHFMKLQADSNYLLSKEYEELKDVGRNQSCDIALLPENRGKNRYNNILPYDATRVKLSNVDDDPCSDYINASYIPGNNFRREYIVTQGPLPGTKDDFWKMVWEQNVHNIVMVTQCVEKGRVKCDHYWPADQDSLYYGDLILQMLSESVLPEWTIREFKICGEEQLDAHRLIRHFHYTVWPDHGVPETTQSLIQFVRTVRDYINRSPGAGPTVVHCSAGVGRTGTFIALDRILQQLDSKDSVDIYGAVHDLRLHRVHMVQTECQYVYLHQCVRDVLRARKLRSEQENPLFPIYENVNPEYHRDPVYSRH
UniProt Q02763, residues 23-1124: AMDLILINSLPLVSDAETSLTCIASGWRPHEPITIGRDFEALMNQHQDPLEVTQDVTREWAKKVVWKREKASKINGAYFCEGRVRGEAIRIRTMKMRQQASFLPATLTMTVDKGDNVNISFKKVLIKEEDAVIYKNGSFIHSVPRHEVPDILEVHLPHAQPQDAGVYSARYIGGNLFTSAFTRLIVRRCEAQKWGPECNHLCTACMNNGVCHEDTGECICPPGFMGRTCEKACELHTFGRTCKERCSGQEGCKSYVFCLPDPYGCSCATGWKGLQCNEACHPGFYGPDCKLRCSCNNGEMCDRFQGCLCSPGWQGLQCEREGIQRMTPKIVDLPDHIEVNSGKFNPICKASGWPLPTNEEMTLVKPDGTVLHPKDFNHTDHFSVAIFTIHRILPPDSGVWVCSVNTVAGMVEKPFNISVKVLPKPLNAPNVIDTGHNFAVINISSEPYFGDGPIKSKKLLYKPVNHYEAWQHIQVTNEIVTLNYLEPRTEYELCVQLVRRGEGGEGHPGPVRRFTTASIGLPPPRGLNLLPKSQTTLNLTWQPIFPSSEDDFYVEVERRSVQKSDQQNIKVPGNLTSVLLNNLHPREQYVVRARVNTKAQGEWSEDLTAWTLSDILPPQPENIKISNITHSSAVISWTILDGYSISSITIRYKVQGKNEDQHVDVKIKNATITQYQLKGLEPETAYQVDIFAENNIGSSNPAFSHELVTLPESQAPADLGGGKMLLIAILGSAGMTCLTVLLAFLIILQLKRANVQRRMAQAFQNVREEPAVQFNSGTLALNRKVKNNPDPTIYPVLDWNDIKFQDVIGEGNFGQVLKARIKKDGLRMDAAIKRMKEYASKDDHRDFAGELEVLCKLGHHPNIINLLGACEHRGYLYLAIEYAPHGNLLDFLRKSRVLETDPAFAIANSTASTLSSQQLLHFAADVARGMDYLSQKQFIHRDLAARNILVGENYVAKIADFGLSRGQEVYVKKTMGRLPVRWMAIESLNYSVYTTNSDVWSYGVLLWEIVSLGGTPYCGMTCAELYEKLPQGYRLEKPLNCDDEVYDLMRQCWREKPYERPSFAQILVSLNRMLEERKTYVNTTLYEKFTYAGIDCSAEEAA
UniProt P35968, residues 20-1356: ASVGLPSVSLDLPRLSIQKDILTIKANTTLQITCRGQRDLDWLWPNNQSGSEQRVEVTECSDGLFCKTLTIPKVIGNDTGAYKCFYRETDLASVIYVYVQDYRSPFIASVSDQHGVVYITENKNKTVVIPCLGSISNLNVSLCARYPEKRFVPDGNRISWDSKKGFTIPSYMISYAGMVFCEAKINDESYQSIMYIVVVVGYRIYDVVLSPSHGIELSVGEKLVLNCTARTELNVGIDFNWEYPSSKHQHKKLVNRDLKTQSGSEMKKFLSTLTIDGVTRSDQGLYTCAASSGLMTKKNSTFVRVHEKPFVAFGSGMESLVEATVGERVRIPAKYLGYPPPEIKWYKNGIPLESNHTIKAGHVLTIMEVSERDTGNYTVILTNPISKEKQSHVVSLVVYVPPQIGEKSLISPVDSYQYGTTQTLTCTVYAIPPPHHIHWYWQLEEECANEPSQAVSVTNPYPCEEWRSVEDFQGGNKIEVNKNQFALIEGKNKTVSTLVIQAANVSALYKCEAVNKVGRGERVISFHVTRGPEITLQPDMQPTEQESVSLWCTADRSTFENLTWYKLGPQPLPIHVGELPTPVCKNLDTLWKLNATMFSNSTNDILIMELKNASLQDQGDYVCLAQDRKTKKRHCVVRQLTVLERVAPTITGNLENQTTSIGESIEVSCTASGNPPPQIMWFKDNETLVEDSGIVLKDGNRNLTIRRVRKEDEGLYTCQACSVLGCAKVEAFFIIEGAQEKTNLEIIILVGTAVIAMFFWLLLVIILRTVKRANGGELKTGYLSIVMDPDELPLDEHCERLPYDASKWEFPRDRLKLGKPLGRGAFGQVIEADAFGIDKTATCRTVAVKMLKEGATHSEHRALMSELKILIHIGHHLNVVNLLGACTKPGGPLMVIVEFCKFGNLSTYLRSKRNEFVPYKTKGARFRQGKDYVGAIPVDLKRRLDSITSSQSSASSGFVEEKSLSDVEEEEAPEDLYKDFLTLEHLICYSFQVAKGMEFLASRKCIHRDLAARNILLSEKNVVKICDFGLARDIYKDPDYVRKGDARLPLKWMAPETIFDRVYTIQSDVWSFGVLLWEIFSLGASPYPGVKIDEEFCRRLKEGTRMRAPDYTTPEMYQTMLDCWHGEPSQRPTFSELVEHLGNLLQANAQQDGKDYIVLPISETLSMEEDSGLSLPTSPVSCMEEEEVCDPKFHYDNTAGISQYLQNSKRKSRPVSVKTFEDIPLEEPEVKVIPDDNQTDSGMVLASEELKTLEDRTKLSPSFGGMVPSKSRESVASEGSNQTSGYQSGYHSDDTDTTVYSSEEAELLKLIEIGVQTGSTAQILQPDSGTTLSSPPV

Molecular target: VE-PTP (human (endogenous in HUVECs)) (UniProt P23467)
Experiment: co-IP; HUVECs pretreated with 30 ug/ml 4E2 for 20 min, then VEGF for 10 min; 1% NP-40 lysis buffer (20 mM HEPES pH 7.4, 150 mM NaCl, 1 mM EDTA); lysate incubated overnight with anti-human VE-PTP antibody, Protein-A/G agarose beads; immunoblot

| Substance | binding |
| --- | --- |
| tunica interna endothelial cell kinase 2 (Tie2), endogenous in HUVECs (from UniProt Q02763 23-1124) (receptor) | binds |
| vascular endothelial growth factor receptor 2 (from UniProt P35968 20-1356) | binds |
